No constants are given. Whether binding was seen depends on the method and setting. Some results given as binding are weak or reduced against the parent protein; the word gives no strength.
Each binder was assayed against recombinant human IGF2R extracellular domain protein (human) (UniProt P11717) (assay: phage ELISA on recombinant human IGF2R protein).

By UniProt entry, the sequences of proteins in these tests, tags left out. Where a name states a change or a piece, a line headed by the entry shows the natural chain unless it says otherwise.
UniProt P11717: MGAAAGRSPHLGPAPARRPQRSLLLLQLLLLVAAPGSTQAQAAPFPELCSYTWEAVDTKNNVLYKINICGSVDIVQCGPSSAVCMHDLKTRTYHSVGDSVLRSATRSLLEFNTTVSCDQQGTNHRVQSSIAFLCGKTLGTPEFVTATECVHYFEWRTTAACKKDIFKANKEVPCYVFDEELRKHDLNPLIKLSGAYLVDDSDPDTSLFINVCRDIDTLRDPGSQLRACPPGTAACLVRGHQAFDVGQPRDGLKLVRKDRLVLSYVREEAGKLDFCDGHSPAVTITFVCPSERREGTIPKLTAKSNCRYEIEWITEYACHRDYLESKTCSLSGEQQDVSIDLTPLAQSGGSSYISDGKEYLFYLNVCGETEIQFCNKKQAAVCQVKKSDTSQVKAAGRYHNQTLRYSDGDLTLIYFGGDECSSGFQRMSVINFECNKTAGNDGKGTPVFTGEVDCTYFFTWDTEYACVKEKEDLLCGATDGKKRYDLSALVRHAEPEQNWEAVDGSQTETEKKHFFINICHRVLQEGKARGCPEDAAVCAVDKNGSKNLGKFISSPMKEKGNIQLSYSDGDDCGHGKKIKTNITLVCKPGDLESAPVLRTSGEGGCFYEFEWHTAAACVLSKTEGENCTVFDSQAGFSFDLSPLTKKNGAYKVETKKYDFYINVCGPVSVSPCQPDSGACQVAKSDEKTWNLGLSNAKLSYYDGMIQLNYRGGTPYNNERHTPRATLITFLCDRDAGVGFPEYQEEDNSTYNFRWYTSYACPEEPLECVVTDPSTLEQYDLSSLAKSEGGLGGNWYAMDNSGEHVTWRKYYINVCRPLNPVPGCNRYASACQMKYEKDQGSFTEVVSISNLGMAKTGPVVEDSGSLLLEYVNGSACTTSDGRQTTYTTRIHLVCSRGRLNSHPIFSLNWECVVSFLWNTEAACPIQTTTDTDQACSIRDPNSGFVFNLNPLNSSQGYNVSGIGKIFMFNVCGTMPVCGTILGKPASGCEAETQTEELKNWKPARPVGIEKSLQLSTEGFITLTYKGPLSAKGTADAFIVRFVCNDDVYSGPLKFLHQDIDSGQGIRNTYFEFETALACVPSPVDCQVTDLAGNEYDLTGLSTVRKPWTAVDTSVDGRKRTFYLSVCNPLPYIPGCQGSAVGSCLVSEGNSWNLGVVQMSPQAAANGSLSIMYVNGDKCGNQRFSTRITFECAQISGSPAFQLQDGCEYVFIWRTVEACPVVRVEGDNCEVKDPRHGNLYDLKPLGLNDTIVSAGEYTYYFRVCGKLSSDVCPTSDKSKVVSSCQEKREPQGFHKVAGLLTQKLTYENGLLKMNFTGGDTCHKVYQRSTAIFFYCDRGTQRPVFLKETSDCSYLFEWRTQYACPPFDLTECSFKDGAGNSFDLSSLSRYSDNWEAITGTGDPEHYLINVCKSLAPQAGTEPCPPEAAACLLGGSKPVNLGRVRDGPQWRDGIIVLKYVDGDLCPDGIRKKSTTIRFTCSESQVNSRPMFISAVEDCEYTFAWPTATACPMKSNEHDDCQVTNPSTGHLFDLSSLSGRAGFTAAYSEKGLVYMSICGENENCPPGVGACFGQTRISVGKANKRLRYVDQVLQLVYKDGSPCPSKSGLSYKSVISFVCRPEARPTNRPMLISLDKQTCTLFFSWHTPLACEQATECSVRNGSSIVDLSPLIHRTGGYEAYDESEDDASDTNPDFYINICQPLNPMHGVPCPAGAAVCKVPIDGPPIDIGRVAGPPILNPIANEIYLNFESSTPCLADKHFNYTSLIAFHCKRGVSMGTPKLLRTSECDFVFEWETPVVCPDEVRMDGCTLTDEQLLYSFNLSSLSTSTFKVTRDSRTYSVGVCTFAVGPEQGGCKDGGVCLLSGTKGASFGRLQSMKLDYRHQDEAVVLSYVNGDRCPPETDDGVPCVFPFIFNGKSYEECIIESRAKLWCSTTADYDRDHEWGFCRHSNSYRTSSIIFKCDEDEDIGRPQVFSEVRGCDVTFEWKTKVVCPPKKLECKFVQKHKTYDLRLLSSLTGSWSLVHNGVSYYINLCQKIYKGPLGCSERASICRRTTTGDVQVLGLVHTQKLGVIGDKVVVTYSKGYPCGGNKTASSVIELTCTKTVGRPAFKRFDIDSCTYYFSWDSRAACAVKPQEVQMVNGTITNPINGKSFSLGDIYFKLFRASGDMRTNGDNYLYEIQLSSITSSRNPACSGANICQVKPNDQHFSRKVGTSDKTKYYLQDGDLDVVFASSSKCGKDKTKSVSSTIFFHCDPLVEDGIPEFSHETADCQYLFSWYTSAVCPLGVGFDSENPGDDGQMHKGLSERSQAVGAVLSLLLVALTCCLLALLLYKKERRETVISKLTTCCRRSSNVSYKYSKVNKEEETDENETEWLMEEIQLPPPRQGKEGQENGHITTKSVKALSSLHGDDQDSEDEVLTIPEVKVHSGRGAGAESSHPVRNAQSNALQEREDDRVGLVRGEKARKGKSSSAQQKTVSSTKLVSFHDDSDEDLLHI

Binder | binding
GFPTRFEALSSN [SEQ ID NO 1] | binds
SGVYKVAYDWQH [SEQ ID NO 10] | binds
VHWDFRQWWQPS [Phage No. 431] | binds
GLHTSATNLYLH [SEQ ID NO 2] | binds
HSFKWLDSPRLR [SEQ ID NO 3] | binds
SGVYKVAYDGQH [SEQ ID NO 4] | binds
KASGSPSGFWPS [SEQ ID NO 5] | binds
RRVDKVQYDRQH [SEQ ID NO 7] | binds
GLHTSALSDLH [SEQ ID NO 8] | binds
HTSSLWHLFRST [SEQ ID NO 9] | binds

— patent publication US20170101442A1
